Laboratory results from paper PMC11403291.
Results are given in words; binding and its absence hold for the method and conditions named. In cells and extracts the contact can be indirect. These calls come from enrichment with a bait or labelling near it, and not all partners need be listed.

Protein sequences, listed by entry. Tags and fused reporters are not part of them.
UniProt O95271: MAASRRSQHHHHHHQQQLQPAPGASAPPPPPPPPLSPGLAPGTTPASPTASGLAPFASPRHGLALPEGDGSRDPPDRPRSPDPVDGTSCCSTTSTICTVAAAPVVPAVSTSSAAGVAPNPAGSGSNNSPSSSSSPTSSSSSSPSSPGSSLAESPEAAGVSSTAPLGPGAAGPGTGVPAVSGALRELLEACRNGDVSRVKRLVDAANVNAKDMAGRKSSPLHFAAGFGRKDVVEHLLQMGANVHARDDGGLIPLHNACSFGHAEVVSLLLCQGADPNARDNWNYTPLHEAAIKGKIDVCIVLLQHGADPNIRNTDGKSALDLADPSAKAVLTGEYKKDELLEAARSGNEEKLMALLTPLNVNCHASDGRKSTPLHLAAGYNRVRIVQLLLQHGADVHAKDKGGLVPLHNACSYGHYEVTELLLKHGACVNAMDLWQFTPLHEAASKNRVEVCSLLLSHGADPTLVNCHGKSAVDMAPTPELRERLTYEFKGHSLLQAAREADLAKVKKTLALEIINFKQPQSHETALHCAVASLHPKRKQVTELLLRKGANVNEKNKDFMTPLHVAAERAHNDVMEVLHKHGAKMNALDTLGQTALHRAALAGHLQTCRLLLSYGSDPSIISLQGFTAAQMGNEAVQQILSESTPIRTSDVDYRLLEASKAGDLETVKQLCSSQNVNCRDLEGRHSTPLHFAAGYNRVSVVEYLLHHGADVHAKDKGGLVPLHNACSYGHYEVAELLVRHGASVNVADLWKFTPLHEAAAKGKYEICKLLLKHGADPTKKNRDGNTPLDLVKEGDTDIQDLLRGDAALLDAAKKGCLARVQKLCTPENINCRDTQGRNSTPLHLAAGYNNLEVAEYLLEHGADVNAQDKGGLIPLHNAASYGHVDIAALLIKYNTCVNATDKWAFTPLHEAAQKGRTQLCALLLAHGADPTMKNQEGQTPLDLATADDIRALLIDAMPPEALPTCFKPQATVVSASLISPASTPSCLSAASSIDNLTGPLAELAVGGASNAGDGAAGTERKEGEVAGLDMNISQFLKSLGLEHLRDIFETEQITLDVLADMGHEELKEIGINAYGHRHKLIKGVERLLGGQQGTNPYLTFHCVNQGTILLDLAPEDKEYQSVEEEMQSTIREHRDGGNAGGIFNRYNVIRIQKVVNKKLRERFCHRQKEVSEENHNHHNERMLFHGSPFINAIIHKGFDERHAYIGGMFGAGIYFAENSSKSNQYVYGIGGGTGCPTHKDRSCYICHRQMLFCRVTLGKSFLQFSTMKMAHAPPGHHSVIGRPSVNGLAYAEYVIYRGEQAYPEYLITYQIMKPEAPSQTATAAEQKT
UniProt P09874: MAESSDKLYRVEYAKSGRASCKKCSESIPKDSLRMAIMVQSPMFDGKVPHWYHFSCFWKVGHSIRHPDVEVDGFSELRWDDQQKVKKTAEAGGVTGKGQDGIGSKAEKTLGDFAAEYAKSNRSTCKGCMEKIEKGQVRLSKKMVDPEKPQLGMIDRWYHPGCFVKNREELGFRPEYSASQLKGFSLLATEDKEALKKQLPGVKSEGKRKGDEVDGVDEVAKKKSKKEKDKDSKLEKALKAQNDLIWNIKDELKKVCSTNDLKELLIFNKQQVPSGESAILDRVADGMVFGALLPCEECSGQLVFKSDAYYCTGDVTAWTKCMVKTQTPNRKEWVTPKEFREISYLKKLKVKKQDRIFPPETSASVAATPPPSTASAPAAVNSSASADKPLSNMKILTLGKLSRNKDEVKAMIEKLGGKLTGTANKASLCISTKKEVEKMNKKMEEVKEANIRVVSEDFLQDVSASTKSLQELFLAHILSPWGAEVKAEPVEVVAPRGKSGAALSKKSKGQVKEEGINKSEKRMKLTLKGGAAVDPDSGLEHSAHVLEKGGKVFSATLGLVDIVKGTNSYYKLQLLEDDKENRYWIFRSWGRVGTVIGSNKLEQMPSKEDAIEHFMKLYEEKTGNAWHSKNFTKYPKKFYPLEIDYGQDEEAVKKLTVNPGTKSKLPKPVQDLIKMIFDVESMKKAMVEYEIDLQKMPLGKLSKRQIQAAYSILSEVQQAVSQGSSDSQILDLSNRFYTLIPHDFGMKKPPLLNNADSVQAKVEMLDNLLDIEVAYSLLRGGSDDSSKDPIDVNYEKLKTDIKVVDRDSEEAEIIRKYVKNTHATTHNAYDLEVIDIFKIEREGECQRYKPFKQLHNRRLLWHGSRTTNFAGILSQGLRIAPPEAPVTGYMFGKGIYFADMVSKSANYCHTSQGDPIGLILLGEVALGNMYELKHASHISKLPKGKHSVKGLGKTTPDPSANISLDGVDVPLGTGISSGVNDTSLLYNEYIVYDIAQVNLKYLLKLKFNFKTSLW

T1: tankyrase TNKS2 (human (endogenous in HEK293, K-562, placenta, HepG2 Princen)) (UniProt Q9H2K2)
T1 sequence: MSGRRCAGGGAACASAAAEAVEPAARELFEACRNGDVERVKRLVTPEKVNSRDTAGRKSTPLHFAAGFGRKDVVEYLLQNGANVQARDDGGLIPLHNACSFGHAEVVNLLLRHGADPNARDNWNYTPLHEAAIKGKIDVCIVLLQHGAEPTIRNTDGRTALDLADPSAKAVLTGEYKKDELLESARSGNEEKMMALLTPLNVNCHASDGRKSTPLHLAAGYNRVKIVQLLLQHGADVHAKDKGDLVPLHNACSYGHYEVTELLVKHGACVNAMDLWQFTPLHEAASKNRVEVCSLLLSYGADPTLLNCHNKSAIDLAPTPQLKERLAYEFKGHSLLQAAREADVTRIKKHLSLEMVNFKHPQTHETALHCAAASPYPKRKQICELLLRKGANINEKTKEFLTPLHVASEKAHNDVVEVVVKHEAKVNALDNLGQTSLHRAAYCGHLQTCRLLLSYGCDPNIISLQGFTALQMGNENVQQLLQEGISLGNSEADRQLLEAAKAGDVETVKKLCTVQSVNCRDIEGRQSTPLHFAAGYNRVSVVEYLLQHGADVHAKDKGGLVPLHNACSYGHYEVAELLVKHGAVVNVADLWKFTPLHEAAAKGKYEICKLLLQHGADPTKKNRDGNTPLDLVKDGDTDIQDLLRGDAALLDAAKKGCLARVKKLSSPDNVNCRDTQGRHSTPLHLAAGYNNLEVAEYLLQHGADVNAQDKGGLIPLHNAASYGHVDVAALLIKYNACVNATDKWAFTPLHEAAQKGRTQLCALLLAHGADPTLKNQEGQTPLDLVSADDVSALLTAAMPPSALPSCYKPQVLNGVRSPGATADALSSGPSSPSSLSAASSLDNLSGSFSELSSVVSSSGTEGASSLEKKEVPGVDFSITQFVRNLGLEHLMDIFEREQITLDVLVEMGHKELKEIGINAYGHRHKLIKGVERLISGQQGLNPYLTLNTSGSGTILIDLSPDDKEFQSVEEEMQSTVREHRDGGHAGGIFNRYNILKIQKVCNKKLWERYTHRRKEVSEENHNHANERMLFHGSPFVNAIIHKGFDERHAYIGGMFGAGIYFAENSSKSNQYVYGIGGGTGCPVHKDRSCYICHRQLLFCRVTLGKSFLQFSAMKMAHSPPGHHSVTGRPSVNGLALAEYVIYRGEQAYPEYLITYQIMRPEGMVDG


How the values were obtained:
Assay in all cases: affinity purification with mass spectrometry
[1] = target: tankyrase TNKS (human (endogenous in HEK293, K-562, placenta, HepG2 Princen)) (UniProt O95271)
[2] = target: T1, tankyrase TNKS2 (human (endogenous in HEK293, K-562, placenta, HepG2 Princen))
[3] = target: PARP1 (human (endogenous in HEK293, K-562, placenta, HepG2 Princen)) (UniProt P09874)

binding [1]	binding [2]	binding [3]	Binder
binds	binds	–	GDP-mannose 4,6-dehydratase (enzyme, UniProt O60547 1-372) MAHAPARCPSARGSGDGEMGKPRNVALITGITGQDGSYLAEFLLEKGYEVHGIVRRSSSFNTGRIEHLYKNPQAHIEGNMKLHYGDLTDSTCLVKIINEVKPTEIYNLGAQSHVKISFDLAEYTADVDGVGTLRLLDAVKTCGLINSVKFYQASTSELYGKVQEIPQKETTPFYPRSPYGAAKLYAYWIVVNFREAYNLFAVNGILFNHESPRRGANFVTRKISRSVAKIYLGQLECFSLGNLDAKRDWGHAKDYVEAMWLMLQNDEPEDFVIATGEVHSVREFVEKSFLHIGKTIVWEGKNENEVGRCKETGKVHVTVDLKYYRPTEVDFLQGDCTKAKQKLNWKPRVAFDELVREMVHADVELMRTNPNA
–	–	binds	DNA ligase 3 (LIG3) (enzyme, UniProt P49916 43-1009) LLHGHPLFLRRKPVLSFQGSHLRSRATYLVFLPGLHVGLCSGPCEMAEQRFCVDYAKRGTAGCKKCKEKIVKGVCRIGKVVPNPFSESGGDMKEWYHIKCMFEKLERARATTKKIEDLTELEGWEELEDNEKEQITQHIADLSSKAAGTPKKKAVVQAKLTTTGQVTSPVKGASFVTSTNPRKFSGFSAKPNNSGEAPSSPTPKRSLSSSKCDPRHKDCLLREFRKLCAMVADNPSYNTKTQIIQDFLRKGSAGDGFHGDVYLTVKLLLPGVIKTVYNLNDKQIVKLFSRIFNCNPDDMARDLEQGDVSETIRVFFEQSKSFPPAAKSLLTIQEVDEFLLRLSKLTKEDEQQQALQDIASRCTANDLKCIIRLIKHDLKMNSGAKHVLDALDPNAYEAFKASRNLQDVVERVLHNAQEVEKEPGQRRALSVQASLMTPVQPMLAEACKSVEYAMKKCPNGMFSEIKYDGERVQVHKNGDHFSYFSRSLKPVLPHKVAHFKDYIPQAFPGGHSMILDSEVLLIDNKTGKPLPFGTLGVHKKAAFQDANVCLFVFDCIYFNDVSLMDRPLCERRKFLHDNMVEIPNRIMFSEMKRVTKALDLADMITRVIQEGLEGLVLKDVKGTYEPGKRHWLKVKKDYLNEGAMADTADLVVLGAFYGQGSKGGMMSIFLMGCYDPGSQKWCTVTKCAGGHDDATLARLQNELDMVKISKDPSKIPSWLKVNKIYYPDFIVPDPKKAAVWEITGAEFSKSEAHTADGISIRFPRCTRIRDDKDWKSATNLPQLKELYQLSKEKADFTVVAGDEGSSTTGGSSEENKGPSGSAVSRKAPSKPSASTKKAEGKLSNSNSKDGNMQTAKPSAMKVGEKLATKSSPVKVGEKRKAADETLCQTKVLLDIFTGVRLYLPPSTPDFSRLRRYFVAFDGDLVQEFDMTSATHVLGSRDKNPAAQQVSPEWIWACIRKRRLVAPC
